Results are given in words; binding and its absence hold for the method and conditions named.

This experiment addresses PCSK9 variant R93R96R97H139 (human). Briefly: immunoprecipitation of 35S-PCSK9 variants, autoradiography (FIG. 8I).

B1: mAb 5E11 (rat hybridoma BNT-5E11-D4/G1-E4) (antibody, V domains shown)
VH: EVQLQESGPGLVKPSQSLSLTCSVTGYTITSGYDWSWIRRFPGNTMEWMGDISYSGSTNYNPSLKSRVSITRDTSKNQFFLQLNSVTTGDTATYYCAKLPGWGQGTLVTVSS
VL: DVVLTQTPVFLSVTLGDQTSISCRSSQSLEYSDGYTYLEWYLQKPGQSPQLLIYEVSNRFSGVPDRFIGSGSGTDFTLKISRVEPEDLGVYYCFQGTHDPLTFGSGTKLEIK
Take B1: the binding entry was “no binding”.

Source of the values: patent publication US20220072032A1.
